Source: PubChem BioAssay AID1259308 (NCATS, 2017)
Assay: 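Genes whose loss raises luciferase production in HEK293 cells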 (primary screen). Cell system: human HEK293 embryonic kidney cells stably expressing firefly luciferase (HEK-CMV-Luc2-Hygro). Reagents: single siRNA against human genes, 0.8 pmol siRNA per well. Timing: 72 h. Measured: 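Luciferase light (ONE-Glo) measured on one replicate plate set and viability (CellTiter-Glo) on the other, scaled to a negative control siRNA, with robust z-scores and luciferase per cell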. Scale: total luciferase, z-score and total luciferase, % of control: higher = more reporter protein produced. Hit rule: 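An siRNA counts as active if its total luciferase robust z-score exceeds 3; genes with two or more such siRNAs out of three were retested with fresh siRNAs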. Meaning of the calls: active = raised luciferase; inactive = no rise.
The deposit covers about 59,000 reagents; this is an unselected part. About 1,510 of all reagents (2.6%) were called active. 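Calls use total luciferase alone and ignore viability, so some active siRNAs may act by altering cell number.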 Unmarked entries are inactive. Reagents against one gene are numbered here. Not all columns of the deposit are shown.

CD48 #1 scored total luciferase, z-score -0.769; total luciferase, % of control 66.6.
Knock-down of CD48 #2 gave: total luciferase, z-score -0.246; total luciferase, % of control 77.
CD48 #3 gave total luciferase, z-score -0.717; total luciferase, % of control 67.6.
For PPP1R1C #1, the values are total luciferase, z-score 0.855; total luciferase, % of control 98.9.
With knock-down of PPP1R1C #2, the screen gave total luciferase, z-score 0.0965; total luciferase, % of control 83.8.
PPP1R1C #3 scored total luciferase, z-score 2.09; total luciferase, % of control 124.

Entries listed so far whose target name starts with C or c:
CD48 #1 — total luciferase, z-score: -0.769; total luciferase, % of control: 66.6
CD48 #2 — total luciferase, z-score: -0.246; total luciferase, % of control: 77
CD48 #3 — total luciferase, z-score: -0.717; total luciferase, % of control: 67.6

Additional reagents follow:
Knock-down of C1orf87 #1 gave: total luciferase, z-score 0.124; total luciferase, % of control 84.3.
Against C1orf87 #2, the values are total luciferase, z-score -0.633; total luciferase, % of control 69.3.
Against C1orf87 #3 the deposit lists total luciferase, z-score -0.289; total luciferase, % of control 76.1.
RSPH14 #1 showed total luciferase, z-score -0.023; total luciferase, % of control 81.4.
Against RSPH14 #2, the values are total luciferase, z-score -0.62; total luciferase, % of control 69.6.
Against RSPH14 #3 the deposit lists total luciferase, z-score 1.02; total luciferase, % of control 102.
